Experimental data from patent US20110207628A1.
These are yes or no findings as the source states them, for the method shown. Binding seen in cells or lysates may run through a third protein. Some entries that bind do so weakly or less than the wild type. Tags and fused reporters may be left off the sequences shown.

Experiments:
[1] = target: T1, GST-tubby-F (GST fused to full-length mouse tubby) (Schistosoma japonicum; mouse) (UniProt P50586); experiment: GST pull-down: GST-tubby with lysate of cells expressing the FLAG-tagged protein, glutathione resin, Western blot with anti-FLAG mAb
T1 sequence (looked up): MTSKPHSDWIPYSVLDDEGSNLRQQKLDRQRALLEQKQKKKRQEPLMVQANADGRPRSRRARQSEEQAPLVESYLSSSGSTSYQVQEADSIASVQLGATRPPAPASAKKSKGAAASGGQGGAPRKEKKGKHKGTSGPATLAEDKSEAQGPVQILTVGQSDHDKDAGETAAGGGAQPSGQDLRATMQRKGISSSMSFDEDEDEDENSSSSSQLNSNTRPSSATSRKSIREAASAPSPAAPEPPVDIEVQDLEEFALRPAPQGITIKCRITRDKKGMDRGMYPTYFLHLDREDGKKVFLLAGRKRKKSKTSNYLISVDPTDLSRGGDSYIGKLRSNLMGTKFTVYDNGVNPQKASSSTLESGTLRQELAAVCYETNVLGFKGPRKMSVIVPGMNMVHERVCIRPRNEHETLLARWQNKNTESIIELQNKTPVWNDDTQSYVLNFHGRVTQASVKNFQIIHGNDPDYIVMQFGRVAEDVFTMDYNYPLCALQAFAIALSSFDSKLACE

[2] = target: T2, FLAG-tagged Tulp1 (full-length mouse Tulp1 with N-terminal FLAG tag) (mouse) (UniProt Q9Z273); experiment: GST pull-down, anti-FLAG Western blot
T2 sequence: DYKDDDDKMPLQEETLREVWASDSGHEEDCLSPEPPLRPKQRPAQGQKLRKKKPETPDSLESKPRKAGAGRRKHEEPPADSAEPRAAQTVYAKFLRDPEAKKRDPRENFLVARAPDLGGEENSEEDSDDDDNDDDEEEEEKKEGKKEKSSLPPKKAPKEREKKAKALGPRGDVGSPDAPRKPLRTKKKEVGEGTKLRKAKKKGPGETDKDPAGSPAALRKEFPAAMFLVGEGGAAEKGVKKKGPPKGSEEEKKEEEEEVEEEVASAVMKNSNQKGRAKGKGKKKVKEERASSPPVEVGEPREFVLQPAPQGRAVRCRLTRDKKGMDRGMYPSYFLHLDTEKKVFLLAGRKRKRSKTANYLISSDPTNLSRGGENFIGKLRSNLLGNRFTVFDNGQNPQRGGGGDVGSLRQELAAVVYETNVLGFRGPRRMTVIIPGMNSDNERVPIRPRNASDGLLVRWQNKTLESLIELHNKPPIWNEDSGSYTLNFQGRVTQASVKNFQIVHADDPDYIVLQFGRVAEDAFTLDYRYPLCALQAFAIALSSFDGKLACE

[3] = target: T2, FLAG-tagged Tulp1 (full-length mouse Tulp1 with N-terminal FLAG tag) (mouse); experiment: GST pull-down from lysates of FLAG-tagged Tulps, anti-FLAG Western blot
[4] = target: T3, FLAG-Hmgb2 (full-length mouse Hmgb2 with N-terminal FLAG tag) (mouse) (UniProt P30681); experiment: GST pull-down from FLAG-Hmgb2 HEK293 lysate, anti-FLAG Western blot
T3 sequence: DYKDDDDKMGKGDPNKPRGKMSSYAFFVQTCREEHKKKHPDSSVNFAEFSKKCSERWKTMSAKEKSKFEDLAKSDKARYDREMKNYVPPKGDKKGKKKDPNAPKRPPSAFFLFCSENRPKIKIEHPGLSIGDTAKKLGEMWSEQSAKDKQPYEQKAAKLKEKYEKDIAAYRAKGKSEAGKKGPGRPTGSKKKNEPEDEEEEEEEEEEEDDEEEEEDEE

B1: FLAG-tagged Tulp1 (full-length mouse Tulp1 with N-terminal FLAG tag) (protein)
chain: DYKDDDDKMPLQEETLREVWASDSGHEEDCLSPEPPLRPKQRPAQGQKLRKKKPETPDSLESKPRKAGAGRRKHEEPPADSAEPRAAQTVYAKFLRDPEAKKRDPRENFLVARAPDLGGEENSEEDSDDDDNDDDEEEEEKKEGKKEKSSLPPKKAPKEREKKAKALGPRGDVGSPDAPRKPLRTKKKEVGEGTKLRKAKKKGPGETDKDPAGSPAALRKEFPAAMFLVGEGGAAEKGVKKKGPPKGSEEEKKEEEEEVEEEVASAVMKNSNQKGRAKGKGKKKVKEERASSPPVEVGEPREFVLQPAPQGRAVRCRLTRDKKGMDRGMYPSYFLHLDTEKKVFLLAGRKRKRSKTANYLISSDPTNLSRGGENFIGKLRSNLLGNRFTVFDNGQNPQRGGGGDVGSLRQELAAVVYETNVLGFRGPRRMTVIIPGMNSDNERVPIRPRNASDGLLVRWQNKTLESLIELHNKPPIWNEDSGSYTLNFQGRVTQASVKNFQIVHADDPDYIVLQFGRVAEDAFTLDYRYPLCALQAFAIALSSFDGKLACE
[1]
  binding: binds

B2: GST-tubby-F (GST fused to full-length mouse tubby) (protein, UniProt P50586 1-505, looked up, not shown: a dimerising Fc or GST)
chain: MTSKPHSDWIPYSVLDDEGSNLRQQKLDRQRALLEQKQKKKRQEPLMVQANADGRPRSRRARQSEEQAPLVESYLSSSGSTSYQVQEADSIASVQLGATRPPAPASAKKSKGAAASGGQGGAPRKEKKGKHKGTSGPATLAEDKSEAQGPVQILTVGQSDHDKDAGETAAGGGAQPSGQDLRATMQRKGISSSMSFDEDEDEDENSSSSSQLNSNTRPSSATSRKSIREAASAPSPAAPEPPVDIEVQDLEEFALRPAPQGITIKCRITRDKKGMDRGMYPTYFLHLDREDGKKVFLLAGRKRKKSKTSNYLISVDPTDLSRGGDSYIGKLRSNLMGTKFTVYDNGVNPQKASSSTLESGTLRQELAAVCYETNVLGFKGPRKMSVIVPGMNMVHERVCIRPRNEHETLLARWQNKNTESIIELQNKTPVWNDDTQSYVLNFHGRVTQASVKNFQIIHGNDPDYIVMQFGRVAEDVFTMDYNYPLCALQAFAIALSSFDSKLACE
[2]
  binding: binds
[3]
  binding: binds
[4]
  binding: binds
